{"sequences": {"note": "By UniProt entry, the sequences of proteins in these tests, tags left out. Where a name states a change or a piece, a line headed by the entry shows the natural chain unless it says otherwise.", "UniProt Q05481": "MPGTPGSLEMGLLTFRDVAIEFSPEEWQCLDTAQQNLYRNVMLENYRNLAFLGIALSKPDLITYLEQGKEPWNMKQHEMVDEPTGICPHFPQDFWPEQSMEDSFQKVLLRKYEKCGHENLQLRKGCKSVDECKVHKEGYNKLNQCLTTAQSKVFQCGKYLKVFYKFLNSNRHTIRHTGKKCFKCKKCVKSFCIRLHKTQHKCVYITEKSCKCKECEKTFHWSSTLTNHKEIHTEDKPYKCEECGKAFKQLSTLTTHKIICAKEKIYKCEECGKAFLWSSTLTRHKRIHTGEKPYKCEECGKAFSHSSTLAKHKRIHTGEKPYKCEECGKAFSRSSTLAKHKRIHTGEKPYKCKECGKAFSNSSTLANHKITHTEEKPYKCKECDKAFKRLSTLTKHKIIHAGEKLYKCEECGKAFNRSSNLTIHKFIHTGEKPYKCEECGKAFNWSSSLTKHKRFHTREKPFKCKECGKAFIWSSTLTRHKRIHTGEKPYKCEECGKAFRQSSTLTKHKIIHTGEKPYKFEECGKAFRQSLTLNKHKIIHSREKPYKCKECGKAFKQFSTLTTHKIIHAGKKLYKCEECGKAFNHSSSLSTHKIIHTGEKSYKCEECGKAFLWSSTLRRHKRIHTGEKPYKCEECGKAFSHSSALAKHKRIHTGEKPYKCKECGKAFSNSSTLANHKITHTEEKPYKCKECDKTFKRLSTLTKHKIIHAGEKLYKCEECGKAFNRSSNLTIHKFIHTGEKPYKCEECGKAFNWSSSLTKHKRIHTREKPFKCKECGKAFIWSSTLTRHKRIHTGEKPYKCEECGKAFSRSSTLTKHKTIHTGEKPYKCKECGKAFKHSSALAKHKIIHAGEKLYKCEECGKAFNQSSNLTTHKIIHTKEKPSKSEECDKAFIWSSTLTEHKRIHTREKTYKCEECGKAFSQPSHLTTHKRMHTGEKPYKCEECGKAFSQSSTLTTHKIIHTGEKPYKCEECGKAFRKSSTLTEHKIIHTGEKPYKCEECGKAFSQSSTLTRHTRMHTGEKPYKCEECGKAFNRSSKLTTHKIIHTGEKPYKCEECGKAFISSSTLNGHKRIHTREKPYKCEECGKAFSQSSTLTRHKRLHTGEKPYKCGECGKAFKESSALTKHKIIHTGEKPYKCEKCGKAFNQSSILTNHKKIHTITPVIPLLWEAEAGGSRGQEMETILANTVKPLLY", "UniProt Q06323": "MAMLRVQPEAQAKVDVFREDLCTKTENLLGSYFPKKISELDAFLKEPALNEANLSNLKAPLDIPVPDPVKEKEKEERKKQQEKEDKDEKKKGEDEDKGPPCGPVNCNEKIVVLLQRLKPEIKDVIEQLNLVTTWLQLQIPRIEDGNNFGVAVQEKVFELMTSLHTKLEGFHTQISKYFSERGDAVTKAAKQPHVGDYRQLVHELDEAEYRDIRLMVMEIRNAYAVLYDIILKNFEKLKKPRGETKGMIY", "UniProt Q01664": "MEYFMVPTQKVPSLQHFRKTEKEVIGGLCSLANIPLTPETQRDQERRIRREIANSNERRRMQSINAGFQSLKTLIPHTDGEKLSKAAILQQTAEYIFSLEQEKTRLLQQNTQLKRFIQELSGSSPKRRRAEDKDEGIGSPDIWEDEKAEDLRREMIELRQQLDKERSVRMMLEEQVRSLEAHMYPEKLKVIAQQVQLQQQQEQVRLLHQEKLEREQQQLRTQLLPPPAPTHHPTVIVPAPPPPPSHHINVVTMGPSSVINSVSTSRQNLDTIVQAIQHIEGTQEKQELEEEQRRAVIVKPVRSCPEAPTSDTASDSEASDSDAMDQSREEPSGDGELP", "UniProt Q08AG7, whole entry": "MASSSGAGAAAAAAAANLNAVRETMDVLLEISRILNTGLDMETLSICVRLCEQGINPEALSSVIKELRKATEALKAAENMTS", "UniProt Q01469, whole entry": "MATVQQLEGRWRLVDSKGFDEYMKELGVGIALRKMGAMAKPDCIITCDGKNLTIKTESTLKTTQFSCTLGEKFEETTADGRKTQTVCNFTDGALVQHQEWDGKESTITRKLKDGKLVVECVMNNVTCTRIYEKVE", "UniProt Q01995": "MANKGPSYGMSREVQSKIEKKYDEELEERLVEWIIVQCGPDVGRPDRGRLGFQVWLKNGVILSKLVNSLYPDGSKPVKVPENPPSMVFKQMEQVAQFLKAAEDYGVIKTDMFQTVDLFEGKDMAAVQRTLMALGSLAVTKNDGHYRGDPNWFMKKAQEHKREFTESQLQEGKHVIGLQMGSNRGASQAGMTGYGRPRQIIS", "UniProt Q03164, whole entry": "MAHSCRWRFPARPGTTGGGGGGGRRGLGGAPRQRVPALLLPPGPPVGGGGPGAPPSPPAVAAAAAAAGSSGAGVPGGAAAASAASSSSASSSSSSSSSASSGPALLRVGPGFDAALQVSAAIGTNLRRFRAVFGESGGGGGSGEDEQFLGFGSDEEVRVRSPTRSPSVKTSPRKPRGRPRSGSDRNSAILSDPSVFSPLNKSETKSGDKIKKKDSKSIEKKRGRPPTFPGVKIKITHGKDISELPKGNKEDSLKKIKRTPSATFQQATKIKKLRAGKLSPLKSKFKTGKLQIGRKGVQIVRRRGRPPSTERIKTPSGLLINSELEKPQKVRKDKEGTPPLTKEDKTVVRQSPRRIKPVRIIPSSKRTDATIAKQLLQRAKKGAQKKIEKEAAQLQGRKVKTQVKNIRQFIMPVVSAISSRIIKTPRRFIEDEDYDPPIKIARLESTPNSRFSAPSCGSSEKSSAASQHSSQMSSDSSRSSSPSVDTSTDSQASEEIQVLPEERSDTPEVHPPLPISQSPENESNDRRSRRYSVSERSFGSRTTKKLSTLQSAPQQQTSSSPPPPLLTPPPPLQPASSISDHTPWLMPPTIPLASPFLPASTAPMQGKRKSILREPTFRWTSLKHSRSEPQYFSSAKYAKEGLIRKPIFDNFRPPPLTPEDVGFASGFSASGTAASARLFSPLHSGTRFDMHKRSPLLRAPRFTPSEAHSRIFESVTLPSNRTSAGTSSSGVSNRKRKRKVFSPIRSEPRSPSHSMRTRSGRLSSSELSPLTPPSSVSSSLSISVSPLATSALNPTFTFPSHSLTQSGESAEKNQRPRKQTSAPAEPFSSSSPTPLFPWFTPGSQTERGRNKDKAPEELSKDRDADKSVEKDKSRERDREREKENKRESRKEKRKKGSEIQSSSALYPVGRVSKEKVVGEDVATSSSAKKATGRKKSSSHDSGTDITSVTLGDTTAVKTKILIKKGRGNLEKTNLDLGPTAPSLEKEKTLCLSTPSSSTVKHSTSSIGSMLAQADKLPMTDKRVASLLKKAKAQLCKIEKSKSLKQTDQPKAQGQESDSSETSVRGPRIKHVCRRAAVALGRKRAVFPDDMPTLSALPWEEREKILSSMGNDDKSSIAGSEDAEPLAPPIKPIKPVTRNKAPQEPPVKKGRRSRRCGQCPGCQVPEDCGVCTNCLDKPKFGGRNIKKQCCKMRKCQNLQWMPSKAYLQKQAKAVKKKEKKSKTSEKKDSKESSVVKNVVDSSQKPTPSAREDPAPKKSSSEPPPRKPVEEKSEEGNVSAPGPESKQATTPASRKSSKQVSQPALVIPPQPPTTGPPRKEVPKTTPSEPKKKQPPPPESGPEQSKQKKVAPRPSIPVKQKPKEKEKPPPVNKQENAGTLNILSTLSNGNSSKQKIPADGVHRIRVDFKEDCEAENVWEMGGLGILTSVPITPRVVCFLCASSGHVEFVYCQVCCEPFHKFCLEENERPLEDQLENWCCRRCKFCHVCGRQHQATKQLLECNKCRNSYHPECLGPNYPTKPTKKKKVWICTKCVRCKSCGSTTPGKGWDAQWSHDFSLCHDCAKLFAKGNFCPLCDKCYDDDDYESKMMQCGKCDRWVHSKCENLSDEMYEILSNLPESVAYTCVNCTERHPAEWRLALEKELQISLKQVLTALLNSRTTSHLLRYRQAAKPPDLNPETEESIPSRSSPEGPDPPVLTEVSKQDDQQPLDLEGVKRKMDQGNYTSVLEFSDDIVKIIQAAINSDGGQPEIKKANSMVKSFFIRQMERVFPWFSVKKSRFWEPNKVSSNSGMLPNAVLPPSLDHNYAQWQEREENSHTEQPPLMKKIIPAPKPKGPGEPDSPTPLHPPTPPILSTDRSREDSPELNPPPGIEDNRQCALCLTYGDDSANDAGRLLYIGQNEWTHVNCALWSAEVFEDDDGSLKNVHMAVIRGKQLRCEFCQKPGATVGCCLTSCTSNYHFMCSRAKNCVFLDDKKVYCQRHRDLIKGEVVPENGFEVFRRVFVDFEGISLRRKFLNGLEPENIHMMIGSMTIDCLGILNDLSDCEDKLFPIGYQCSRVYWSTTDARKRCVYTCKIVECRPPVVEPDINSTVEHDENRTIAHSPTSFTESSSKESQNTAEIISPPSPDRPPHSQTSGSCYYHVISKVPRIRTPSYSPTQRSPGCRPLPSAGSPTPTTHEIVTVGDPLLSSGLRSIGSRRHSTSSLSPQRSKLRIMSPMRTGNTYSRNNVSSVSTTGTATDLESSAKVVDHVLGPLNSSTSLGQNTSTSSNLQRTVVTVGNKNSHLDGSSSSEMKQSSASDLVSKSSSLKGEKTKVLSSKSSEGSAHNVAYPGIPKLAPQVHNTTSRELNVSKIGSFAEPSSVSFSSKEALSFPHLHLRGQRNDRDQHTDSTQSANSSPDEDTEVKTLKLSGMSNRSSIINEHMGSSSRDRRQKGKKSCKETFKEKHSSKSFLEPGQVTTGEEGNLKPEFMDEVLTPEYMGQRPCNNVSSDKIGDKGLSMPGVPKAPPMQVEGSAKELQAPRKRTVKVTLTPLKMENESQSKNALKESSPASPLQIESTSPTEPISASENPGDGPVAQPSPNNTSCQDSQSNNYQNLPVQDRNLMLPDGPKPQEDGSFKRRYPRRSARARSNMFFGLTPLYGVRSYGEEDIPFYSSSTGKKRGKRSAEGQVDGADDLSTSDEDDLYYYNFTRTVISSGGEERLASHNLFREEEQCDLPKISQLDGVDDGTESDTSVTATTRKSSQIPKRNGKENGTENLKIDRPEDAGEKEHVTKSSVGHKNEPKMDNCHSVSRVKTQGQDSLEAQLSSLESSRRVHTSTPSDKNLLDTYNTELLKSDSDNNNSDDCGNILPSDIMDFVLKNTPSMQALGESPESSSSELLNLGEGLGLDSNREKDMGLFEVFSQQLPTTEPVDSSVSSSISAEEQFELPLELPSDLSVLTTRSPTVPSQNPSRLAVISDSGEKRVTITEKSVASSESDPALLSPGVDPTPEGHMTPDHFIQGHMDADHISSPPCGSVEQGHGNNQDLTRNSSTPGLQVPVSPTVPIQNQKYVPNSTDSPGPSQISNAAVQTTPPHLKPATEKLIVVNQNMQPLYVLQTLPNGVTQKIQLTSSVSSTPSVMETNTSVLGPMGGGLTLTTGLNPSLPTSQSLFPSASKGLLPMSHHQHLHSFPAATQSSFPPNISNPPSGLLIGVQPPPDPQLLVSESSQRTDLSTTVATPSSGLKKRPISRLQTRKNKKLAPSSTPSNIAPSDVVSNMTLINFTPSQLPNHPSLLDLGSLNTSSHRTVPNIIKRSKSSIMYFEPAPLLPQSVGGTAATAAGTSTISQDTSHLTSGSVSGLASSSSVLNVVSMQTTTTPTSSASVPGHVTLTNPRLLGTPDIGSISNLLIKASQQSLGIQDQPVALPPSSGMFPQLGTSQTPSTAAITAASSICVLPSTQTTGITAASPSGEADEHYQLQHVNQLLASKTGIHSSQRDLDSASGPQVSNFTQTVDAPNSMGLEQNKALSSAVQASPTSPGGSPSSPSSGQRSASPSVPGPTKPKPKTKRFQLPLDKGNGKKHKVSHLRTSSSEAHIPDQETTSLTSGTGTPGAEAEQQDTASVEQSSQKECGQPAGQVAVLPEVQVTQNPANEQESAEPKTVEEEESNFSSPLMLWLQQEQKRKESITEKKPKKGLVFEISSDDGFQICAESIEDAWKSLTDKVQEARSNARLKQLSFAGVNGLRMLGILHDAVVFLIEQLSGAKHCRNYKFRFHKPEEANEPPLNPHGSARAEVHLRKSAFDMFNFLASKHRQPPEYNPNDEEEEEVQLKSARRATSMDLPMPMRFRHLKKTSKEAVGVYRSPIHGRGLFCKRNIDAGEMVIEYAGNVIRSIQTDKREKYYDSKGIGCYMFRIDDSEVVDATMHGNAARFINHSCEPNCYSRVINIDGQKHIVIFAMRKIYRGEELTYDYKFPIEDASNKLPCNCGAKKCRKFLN", "UniProt Q04837": "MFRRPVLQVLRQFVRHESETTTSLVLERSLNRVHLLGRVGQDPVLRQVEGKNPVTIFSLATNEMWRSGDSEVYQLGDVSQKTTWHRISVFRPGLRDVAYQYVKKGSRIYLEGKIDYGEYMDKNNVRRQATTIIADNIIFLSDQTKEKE", "UniProt P82970": "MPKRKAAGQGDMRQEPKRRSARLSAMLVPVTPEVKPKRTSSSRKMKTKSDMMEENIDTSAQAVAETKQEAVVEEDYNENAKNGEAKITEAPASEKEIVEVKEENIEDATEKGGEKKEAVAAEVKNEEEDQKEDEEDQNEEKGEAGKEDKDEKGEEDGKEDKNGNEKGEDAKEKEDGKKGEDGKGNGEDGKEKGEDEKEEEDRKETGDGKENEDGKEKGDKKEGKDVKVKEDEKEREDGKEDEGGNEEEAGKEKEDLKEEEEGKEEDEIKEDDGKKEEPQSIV"}, "source": "the supplement of paper PMC12819154", "about": "“High-throughput peptide-centric local stability assay extends protein–ligand identification to membrane proteins, tissues and bacteria” (Nature Structural & Molecular Biology, 2025)", "note": "Some of the results follow. Small differences around the control level are noise."}
{"compound": "Cc1nc(Nc2ncc(C(=O)Nc3c(C)cccc3Cl)s2)cc(N2CCN(CCO)CC2)n1 [dasatinib]", "assay": "log2 fold change of tryptic peptide abundance, ligand vs vehicle (limited proteolysis) (log2 ratio); higher = more trypsin-susceptible (destabilized)", "conditions": "ligand concentration: 5 uM; sample: K562 cleared lysate"}
{"target": "UniProt Q03188 (peptide sequence: NMEEHEEMGNDCVSKK, peptide start residue: 461)", "log2 fold change": -0.979}
{"target": "UniProt Q02040 (peptide sequence: SISNWEVMER, peptide start residue: 45)", "log2 fold change": 0.227}
{"target": "UniProt Q05481 (peptide sequence: CGHENLQLR, peptide start residue: 106)", "log2 fold change": 0.288}
{"target": "NCBP1 (peptide sequence: TLAESDEGKLHVLR, peptide start residue: 575) (UniProt Q09161)", "log2 fold change": -0.208}
{"target": "SMAGP (peptide sequence: GSEKEEYFI, peptide start residue: 89) (UniProt Q0VAQ4)", "log2 fold change": 0.336}
{"target": "GNA12 (peptide sequence: CLLPAEAGGAR, peptide start residue: 11) (UniProt Q03113)", "log2 fold change": 0.424}
{"target": "EXOSC9 (peptide sequence: MEKAPIDTSDVEEK, peptide start residue: 298) (UniProt Q06265)", "log2 fold change": 0.192}
{"target": "RPL18A (peptide sequence: SGTHNMYREYR, peptide start residue: 88) (UniProt Q02543)", "log2 fold change": 0.27}
{"target": "PSME1 (peptide sequence: KGEDEDKGPPCGPVNCNEK, peptide start residue: 91) (UniProt Q06323)", "log2 fold change": 0.343}
{"target": "MBTD1 (peptide sequence: VAVVESVIGGR, peptide start residue: 304) (UniProt Q05BQ5)", "log2 fold change": 0.341}
{"target": "SCRN3 (peptide sequence: KGWWDGKK, peptide start residue: 210) (UniProt Q0VDG4)", "log2 fold change": -0.695}
{"target": "TFAP4 (peptide sequence: AVIVKPVR, peptide start residue: 295) (UniProt Q01664)", "log2 fold change": -0.374}
{"target": "DSC2 (peptide sequence: VYLCNQDENHK, peptide start residue: 838) (UniProt Q02487)", "log2 fold change": -0.528}
{"target": "RBM3 (peptide sequence: SRGFGFITFTNPEHASVAMR, peptide start residue: 46) (UniProt P98179)", "log2 fold change": -0.553}
{"target": "C13ORF37 (peptide sequence: ETMDVLLEISR, peptide start residue: 23) (UniProt Q08AG7)", "log2 fold change": 0.0255}
{"target": "COG7 (peptide sequence: TLQHIVTLLK, peptide start residue: 732) (UniProt P83436)", "log2 fold change": 0.501}
{"target": "FABP5 (peptide sequence: KMGAMAKPDCIITCDGK, peptide start residue: 34) (UniProt Q01469)", "log2 fold change": -0.292}
{"target": "CDC20 (peptide sequence: LKVLYSQK, peptide start residue: 148) (UniProt Q12834)", "log2 fold change": -0.236}
{"target": "TAGLN (peptide sequence: GASQAGMTGYGR, peptide start residue: 184) (UniProt Q01995)", "log2 fold change": 0.124}
{"target": "UniProt Q03164 (peptide sequence: NLMLPDGPKPQEDGSFK, peptide start residue: 2597)", "log2 fold change": -0.383}
{"target": "DGCR2 (peptide sequence: CNPGQFACR, peptide start residue: 30) (UniProt P98153)", "log2 fold change": 0.197}
{"target": "UniProt Q03181 (peptide sequence: CLALGMSHNAIR, peptide start residue: 133)", "log2 fold change": -0.147}
{"target": "PCTK3 (peptide sequence: LEHEEGAPCTAIR, peptide start residue: 198) (UniProt Q07002)", "log2 fold change": -0.0731}
{"target": "PITPNA (peptide sequence: TVITNEYMKEDFLIK, peptide start residue: 96) (UniProt Q00169)", "log2 fold change": 0.345}
{"target": "GSTM4 (peptide sequence: KYTMGDAPDYDR, peptide start residue: 32) (UniProt Q03013)", "log2 fold change": -0.291}
{"target": "VAC14 (peptide sequence: FMINLLKR, peptide start residue: 530) (UniProt Q08AM6)", "log2 fold change": -0.353}
{"target": "FOXO1 (peptide sequence: DKGDSNSSAGWK, peptide start residue: 196) (UniProt Q12778)", "log2 fold change": -0.135}
{"target": "GOLGA3 (peptide sequence: QIEELQQEAR, peptide start residue: 959) (UniProt Q08378)", "log2 fold change": 0.156}
{"target": "FCHO2 (peptide sequence: NLSNEELTK, peptide start residue: 401) (UniProt Q0JRZ9)", "log2 fold change": 0.303}
{"target": "SSBP1 (peptide sequence: DVAYQYVK, peptide start residue: 96) (UniProt Q04837)", "log2 fold change": -0.128}
{"target": "PLCB2 (peptide sequence: QMTENLER, peptide start residue: 1089) (UniProt Q00722)", "log2 fold change": 0.397}
{"target": "ACY1 (peptide sequence: VVNSILAFR, peptide start residue: 222) (UniProt Q03154)", "log2 fold change": 0.0883}
{"target": "UniProt P84090 (peptide sequence: MYEEHLK, peptide start residue: 35)", "log2 fold change": 0.185}
{"target": "UniProt P82970 (peptide sequence: LSAMLVPVTPEVKPK, peptide start residue: 23)", "log2 fold change": 0.068}
{"target": "CTDSPL2 (peptide sequence: KYSEVDDSLPSGGEKPSK, peptide start residue: 26) (UniProt Q05D32)", "log2 fold change": 0.327}
{"target": "FLII (peptide sequence: EGEEATAEAEEK, peptide start residue: 963) (UniProt Q13045)", "log2 fold change": 0.408}
{"target": "MAP4K2 (peptide sequence: VGAGTYGDVYK, peptide start residue: 22) (UniProt Q12851)", "log2 fold change": -0.618}
